PubChem BioAssay AID1671195 – Yale University – 2021

Aim: 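Genes whose knockdown alters LDL uptake in liver cancer cells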 (primary screen)
Cells: human Huh7 hepatoma cells
Reagents: siRNA pool against human genes, 18 nM
Duration: about 2 to 2.5 days of knockdown, then 8 h LDL uptake
Treatment: DiI-labelled LDL at 30 µg/ml for 8 h, in lipoprotein-deficient serum medium
Measurement: 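Fluorescent LDL signal imaged in cells, scaled to the plate median, robust z-score for each replicate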
Scale: robust z-score: higher = more LDL uptake after knockdown
Hit rule: 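a gene counts as active if at least two replicate z-scores exceed ±2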
The deposit covers about 22,000 reagents; this is a part drawn at random. About 1,510 of all reagents (6.9%) count as active. 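Active includes knockdowns raising or lowering LDL uptake; positive z-scores mean more uptake, negative mean less.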

gene knocked down	PubChem SID	robust z-score, replicate 1	robust z-score, replicate 2	robust z-score, replicate 3	activity call
RPS26	SID442896486	-0.675	0.122	-0.281	inactive
MTFR2	SID442897036	-0.0275	-0.507	-0.485	inactive
FBXW11	SID442891932	0.636	-0.699	0.748	inactive
TTC39C	SID442903834	-1.59	-1.15	-1.47	inactive
LOC391481 (retired record)	SID442884757	-1.89	-1.89	-2.06	inactive
SZRD1	SID442892178	-0.89	0.0272	1.46	inactive
STRA8	SID442884560	-2.51	-2.68	-2.29	active
MLPH	SID442901712	-1.28	-0.448	-1.1	inactive
SMCO4	SID442887017	1.09	0.338	1.59	inactive
BCAS1	SID442883873	2.94	1.1	2.58	active
EIF2D	SID442892255	-0.386	0.255	0.706	inactive
CALCOCO2	SID442883746	2.7	0.58	3.85	active
HOXA3	SID442901436	-0.486	-0.981	-1.23	inactive
KLC2	SID442891798	1.1	-0.26	-0.11	inactive
LOC347381	SID442883491	3.22	2.86	2.3	active
SCMH1	SID442884263	-2.2	-0.616	-2.05	active
ZBTB7A	SID442890209	0.59	0.174	0.582	inactive
CCT6A	SID442884225	2.26	3.05	-0.607	active
C1QTNF5	SID442900060	-0.378	-0.974	-0.766	inactive
NCK2	SID442886000	1.42	1.27	1.19	inactive
RAC2	SID442884197	2.1	2.02	1.08	active
CPLX4	SID442894811	-0.0351	-0.104	-0.168	inactive
CLDN10	SID442885153	2.11	1.4	1.44	inactive
LOC388214 (retired record)	SID442891991	0.346	0.0952	0.224	inactive
PRELID3B	SID442904630	-0.801	-3.17	-1.32	inactive
LSAMP	SID442901940	-0.767	-1.35	-0.837	inactive
PHF21B	SID442901743	-0.974	-0.773	-1.1	inactive
MIEF1	SID442884478	-2.04	-2.47	-2.06	active
IFIT3	SID442884959	1.85	1.45	1.98	inactive
CELA2B	SID442892423	0.933	-1.93	1.51	inactive
UBL7-DT	SID442904701	-1.91	-1.72	-1.81	inactive
LOC441351 (retired record)	SID442893167	0.503	-0.371	0.114	inactive
OR8H1	SID442888506	0.657	0.65	0.816	inactive
KCTD1	SID442887483	0.878	1.03	0.804	inactive
UFSP2	SID442887614	0.196	0.527	1.91	inactive
KRT38	SID442900940	-0.422	-1.24	-0.83	inactive
H2AX	SID442894932	-0.0164	-0.181	-0.149	inactive
PPDPFL	SID442903901	-1.26	-1.45	-1.57	inactive
INTS8	SID442900383	-0.77	0.00497	-1.49	inactive
ADAM12	SID442890717	0.366	0.317	0.453	inactive
LOC730236	SID442885182	1.39	1.53	1.98	inactive
HKDC1	SID442883589	2.27	3.22	2.35	active
PCDHGC4	SID442883947	2.71	1.93	1.76	active
FLNB	SID442899053	-0.613	-0.211	-0.888	inactive
C12orf56	SID442888554	-0.374	1.57	0.902	inactive
LOC400708 (retired record)	SID442890050	0.322	0.659	0.432	inactive
KRTAP21-2	SID442899571	-0.645	-0.805	-0.466	inactive
RPS27P4	SID442902055	-1.25	-1.04	-0.715	inactive
CYP4F12	SID442900897	-1.03	-0.76	-0.677	inactive
CHERP	SID442890109	0.306	0.46	0.622	inactive
LINC02872	SID442887572	0.946	0.812	0.893	inactive
ADCK5	SID442890187	0.535	0.375	0.446	inactive
LOC642846	SID442883512	3.18	2.34	2.75	active
LIPT2-AS1	SID442893230	-0.0021	0.324	-0.0998	inactive
TUSC2	SID442890405	1.44	-0.248	0.0746	inactive
R3HDM2	SID442889040	1.17	0.634	0.0586	inactive
KRTAP15-1	SID442898303	-0.575	-0.277	-0.6	inactive
RBM6	SID442892860	-0.207	0.679	-0.124	inactive
COLCA1	SID442887965	0.902	0.841	0.676	inactive
GSTM2P1	SID442896170	0.229	-0.955	-0.00854	inactive
B3GALT5-AS1	SID442899770	-0.697	-0.514	-0.789	inactive
OR52A4P	SID442883688	2.17	2.24	2.97	active
CHRM1	SID442898621	-0.51	-0.555	-0.495	inactive
ARFGAP3	SID442900747	-1.07	-0.686	-0.65	inactive
LOC402426 (retired record)	SID442900599	-1.07	-0.368	-0.906	inactive
UACA	SID442896391	-0.019	-1.04	0.26	inactive
AKAP11	SID442904095	-1.33	-1.69	-1.45	inactive
WDR89	SID442883348	2.45	3.96	3.13	active
SIRT5	SID442895494	-0.425	-0.28	0.182	inactive
LOC441367 (retired record)	SID442897341	-0.243	-0.656	-0.228	inactive
AKAP1	SID442900811	-1.17	-1.14	-0.118	inactive
MGP	SID442892950	0.439	-0.533	0.408	inactive
KLKB1	SID442889943	0.395	0.624	0.435	inactive
LAIR2	SID442884769	-1.75	-2.62	-1.73	inactive
ATP5MC1	SID442888700	1.22	0.583	0.226	inactive
TRMT1	SID442899792	-0.316	-0.375	-1.32	inactive
WFIKKN1	SID442901174	-0.176	-1.1	-1.31	inactive
FAM169BP	SID442887058	1.26	0.979	0.749	inactive
CSK	SID442893248	0.208	-0.28	0.288	inactive
KCNJ6	SID442888038	0.785	0.254	1.34	inactive
MNS1	SID442887560	1.06	-0.786	2.39	inactive
F2	SID442895187	-0.114	-0.202	-0.117	inactive
LOC441053 (retired record)	SID442897862	-0.314	-0.308	-0.678	inactive
POLR2F	SID442884291	-1.76	-2.06	-1.67	active
SPG7	SID442898872	-0.55	-0.73	-0.365	inactive
LOC442072 (retired record)	SID442896539	-0.0826	-0.459	-0.31	inactive
LOC440234 (retired record)	SID442884429	-2	-2.29	-2.04	active

An excerpt of the results above, for reference:
gene knocked down	PubChem SID	robust z-score, replicate 1	robust z-score, replicate 2	robust z-score, replicate 3	activity call
CHRM1	SID442898621	-0.51	-0.555	-0.495	inactive
ARFGAP3	SID442900747	-1.07	-0.686	-0.65	inactive
LOC402426 (retired record)	SID442900599	-1.07	-0.368	-0.906	inactive
UACA	SID442896391	-0.019	-1.04	0.26	inactive
AKAP11	SID442904095	-1.33	-1.69	-1.45	inactive
WDR89	SID442883348	2.45	3.96	3.13	active
SIRT5	SID442895494	-0.425	-0.28	0.182	inactive
LOC441367 (retired record)	SID442897341	-0.243	-0.656	-0.228	inactive
AKAP1	SID442900811	-1.17	-1.14	-0.118	inactive
MGP	SID442892950	0.439	-0.533	0.408	inactive
KLKB1	SID442889943	0.395	0.624	0.435	inactive
